Laboratory results as given in patent US20230103583A1 (NORTHWESTERN UNIVERSITY, published 2023).
Results are given in words; binding and its absence hold for the method and conditions named. Binding seen in cells or lysates may run through a third protein. Some binding calls cover weakened binding; strength is not graded here.

Sequences of proteins named here, by UniProt entry; tags and fusion partners are left off. Residues count along the entry.
UniProt Q02763, residues 23-1124: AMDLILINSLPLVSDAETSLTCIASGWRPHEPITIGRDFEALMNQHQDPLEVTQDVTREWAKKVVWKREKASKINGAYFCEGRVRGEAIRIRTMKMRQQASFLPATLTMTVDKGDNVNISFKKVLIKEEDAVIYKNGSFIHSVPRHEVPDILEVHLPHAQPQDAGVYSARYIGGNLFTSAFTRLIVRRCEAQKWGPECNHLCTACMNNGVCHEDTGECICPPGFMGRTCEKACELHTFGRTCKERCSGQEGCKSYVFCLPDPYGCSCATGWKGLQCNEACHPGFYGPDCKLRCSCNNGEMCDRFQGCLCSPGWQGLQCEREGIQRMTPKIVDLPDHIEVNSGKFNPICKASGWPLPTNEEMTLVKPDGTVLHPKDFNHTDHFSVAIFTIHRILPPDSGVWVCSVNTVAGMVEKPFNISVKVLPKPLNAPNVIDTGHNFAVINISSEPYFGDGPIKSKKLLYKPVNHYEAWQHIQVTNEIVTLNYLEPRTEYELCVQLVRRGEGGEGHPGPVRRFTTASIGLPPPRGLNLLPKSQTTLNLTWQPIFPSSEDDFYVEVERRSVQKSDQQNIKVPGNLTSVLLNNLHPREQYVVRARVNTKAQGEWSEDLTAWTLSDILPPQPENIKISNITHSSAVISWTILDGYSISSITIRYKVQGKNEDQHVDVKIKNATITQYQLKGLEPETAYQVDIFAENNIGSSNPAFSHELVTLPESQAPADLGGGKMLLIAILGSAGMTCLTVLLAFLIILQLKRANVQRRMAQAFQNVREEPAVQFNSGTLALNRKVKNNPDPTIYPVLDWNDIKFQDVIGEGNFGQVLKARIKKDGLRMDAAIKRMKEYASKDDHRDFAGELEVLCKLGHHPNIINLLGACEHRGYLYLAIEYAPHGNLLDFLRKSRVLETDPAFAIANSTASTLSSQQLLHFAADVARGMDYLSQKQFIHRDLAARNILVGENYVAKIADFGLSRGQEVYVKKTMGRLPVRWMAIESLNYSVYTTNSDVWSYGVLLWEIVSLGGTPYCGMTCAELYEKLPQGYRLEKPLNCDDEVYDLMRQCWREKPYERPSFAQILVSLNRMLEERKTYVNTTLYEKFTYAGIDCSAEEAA

Target: Tie2 receptor on HUVEC (human, UniProt Q02763 23-1124)
Test: summary of Example 3 (co-IP and HUVEC treatment)

| Binder | binding |
| --- | --- |
| ANG1-C4BP (ligand) KPFRDCADVYQAGFNKSGIYTIYINNMPEPKKVFCNMDVNGGGWTVIQHREDGSLDFQRGWKEYKMGFGNPSGEYWLGNEFIFAITSQRQYMLRIELMDWEGNRAYSQYDRFHIGNEKQNYRLYLKGHTGTAGKQSSLILHGADFSTKDADNDNCMCKCALMLTGGWWFDACGPSNLNGMFYTAGQNHGKLNGIKWHYFKGPSYSLRSTTMMIRPLDFGGGGSETPEGCEQVLTGKRLMQCLPNPEDVKMALEVYKLSLEIEQLELQRDSARQSTLDKELHHHHHH | binds |
| C4BP-ANG1 (ligand) ETPEGCEQVLTGKRLMQCLPNPEDVKMALEVYKLSLEIEQLELQRDSARQSTLDKELGGGGSKPFRDCADVYQAGFNKSGIYTIYINNMPEPKKVFCNMDVNGGGWTVIQHREDGSLDFQRGWKEYKMGFGNPSGEYWLGNEFIFAITSQRQYMLRIELMDWEGNRAYSQYDRFHIGNEKQNYRLYLKGHTGTAGKQSSLILHGADFSTKDADNDNCMCKCALMLTGGWWFDACGPSNLNGMFYTAGQNHGKLNGIKWHYFKGPSYSLRSTTMMIRPLDFHHHHHH | binds |
